Consider one molecule from patent publication US20240075161A1.

In the experiment the target is T1, Colony stimulating factor 1 receptor (CSF1R) on CSF1R+ cells (mouse) (UniProt P09581).
T1 sequence (looked up): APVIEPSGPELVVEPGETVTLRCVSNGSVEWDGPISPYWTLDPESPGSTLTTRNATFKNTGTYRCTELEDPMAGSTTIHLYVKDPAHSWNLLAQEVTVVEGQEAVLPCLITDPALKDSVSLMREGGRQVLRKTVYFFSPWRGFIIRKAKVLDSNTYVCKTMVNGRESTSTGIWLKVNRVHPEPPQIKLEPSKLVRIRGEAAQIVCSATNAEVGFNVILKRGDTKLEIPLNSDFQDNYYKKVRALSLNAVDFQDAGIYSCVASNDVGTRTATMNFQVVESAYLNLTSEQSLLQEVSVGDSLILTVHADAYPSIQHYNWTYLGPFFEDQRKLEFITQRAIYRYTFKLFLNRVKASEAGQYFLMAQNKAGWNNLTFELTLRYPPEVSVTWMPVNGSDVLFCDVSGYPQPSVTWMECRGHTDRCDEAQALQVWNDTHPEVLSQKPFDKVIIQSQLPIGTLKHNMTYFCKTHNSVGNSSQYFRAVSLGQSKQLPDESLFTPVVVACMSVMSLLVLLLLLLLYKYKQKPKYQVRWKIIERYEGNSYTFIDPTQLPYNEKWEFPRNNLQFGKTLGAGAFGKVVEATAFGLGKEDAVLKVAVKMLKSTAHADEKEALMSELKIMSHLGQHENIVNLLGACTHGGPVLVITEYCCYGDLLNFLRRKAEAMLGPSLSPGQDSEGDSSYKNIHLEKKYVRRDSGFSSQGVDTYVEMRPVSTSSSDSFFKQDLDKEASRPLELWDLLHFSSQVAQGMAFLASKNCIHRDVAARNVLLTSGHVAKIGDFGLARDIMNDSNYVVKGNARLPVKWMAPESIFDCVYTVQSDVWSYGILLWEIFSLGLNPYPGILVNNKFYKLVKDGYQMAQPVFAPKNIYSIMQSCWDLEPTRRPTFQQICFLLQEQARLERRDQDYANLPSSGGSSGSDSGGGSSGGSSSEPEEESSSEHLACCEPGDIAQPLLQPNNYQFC
Put plainly: fluorescence images of exosome uptake by CSF1R+ cells, stained with anti-CSF1R antibody.

No constants are given. Whether binding was seen depends on the method and setting. Some results given as binding are weak or reduced against the parent protein; the word gives no strength. Sequences can lack the tags named with a protein.

B1: Lamp2b signaling peptide-linker-mouse CSF1R targeting peptides-linker-mouse IgG2b-linker-Myc-Lamp2b C-terminus fusion, displayed on HEK293 engineered exosomes (Fc fusion)
chain: SAGNSTMGSGSEHCSHMIGNGHLKVLQQLIDSQMETSCQIAFEFVDQEQLDDPVCYLKKAFFLVQDIIDETMRFKDNTPNANATERLQELSNNLNSCFTKDYEEQNKACVRTFHETPLQLLEKIKNFFNETKNLLEGSGSGGSSGSGPISTINPCPPCKECHKCPAPNLEGGPSVFIFPPNIKDVLMISLTPKVTCVVVDVSEDDPDVQISWFVNNVEVHTAQTQTHREDYNSTIRVVSTLPIQHQDWMSGKEFKCKVNNKDLPSPIERTISKIKGLVRAPQVYILPPPAEQLSRKDVSLTCLVVGFNPGDISVEWTSNGHTEENYKDTAPVLDSDGSYFIYSKLDIKTSKWEKTDSFSCNVRHEGLKNYYLKKTISRSPGDIGEQKLISEEDLLIVNLTDSKGTCLYAEWEMNFTITYETTNQTNKTITIAVPDKATHDGSSCGDDRNSAKIMIQFGFAVSWAVNFTKEASHYSIHDIVLSYNTSDSTVFPGAVAKGVHTVKNPENFKVPLDVIFKCNSVLTYNLTPVVQKYWGIHLQAFVQNGTVSKNEQVCEEDQTPTTVAPIIHTTAPSTTTTLTPTSTPTPTPTPTPTVGNYSIRNGNTTCLLATMGLQLNITEEKVPFIFNINPATTNFTGSCQPQSAQLRLNNSQIKYLDFIFAVKNEKRFYLKEVNVYMYLANGSAFNISNKNLSFWDAPLGSSYMCNKEQVLSVSRAFQINTFNLKVQPFNVTKGQYSTAEECAADSDLNFLIPVAVGVALGFLIIAVFISYMIGRRKSRTGYQSVHHHHHH
For B1, the binding result was “binds”.
